PubChem BioAssay AID1259254 | NCATS – 2017
Shown is one part, drawn at random, of about 59,000 deposited reagents. About 1,550 of all reagents (2.6%) count as active. 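G2 share is only a proxy for re-replication; each gene was hit by three separate siRNAs, and active genes were retested.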 A number with no mark means an inactive call. The numbers tell different reagents against one gene apart. Further read-outs or replicates are left out here. Not stated in the record: the amount of reagent.

Test: 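Finding genes that stop cells copying their DNA twice in one cycle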 (primary screen)
Cell system: human HCT116 colorectal cancer cells
Knock-down reagent: single siRNA against human genes
Timing: 3 days
Detection: 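Imaged Hoechst DNA stain sorts each cell into a cycle phase by DNA amount; per plate, G2 fraction set to 0% for non-targeting and 100% for GMNN siRNA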
Scale: G2 robust z-score: higher = more G2 cells, more excess DNA replication
Hit rule: 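An siRNA counts as active if its G2 robust z-score lies at least 5 MADs above the screen median; here such calls match roughly 38% of GMNN control or more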

G2 robust z-score, by gene and reagent
C3orf18: #1 0.461; #2 -1.21; #3 2.46
FAM237A: #1 -0.898; #2 -0.0665; #3 0.599
CACFD1: #1 -0.94; #2 -0.725; #3 -0.432
FGD5: #1 -0.168; #2 -0.752; #3 7.13 (active)
SHANK1: #1 -0.907; #2 -0.89; #3 -0.799
TAS1R3: #1 2.95; #2 -0.478; #3 -0.257
CWF19L1: #1 1.95; #2 0.88; #3 5.37 (active)
RPS14P3: #1 4.58; #2 5.08 (active); #3 1.33
LERFS: #1 -0.76; #2 -0.531; #3 -0.43
UBA52: #1 2.9; #2 3.29; #3 1.46
CFHR2: #1 -0.0795; #2 0.718; #3 -0.106
MZB1: #1 1.51; #2 -0.995; #3 -1.52
ENDOG: #1 -0.862; #2 0.734; #3 0.201
PAQR4: #1 0.00705; #2 2.24; #3 -0.463
ZBTB12: #1 0.458; #2 0.193; #3 -0.453
LOC728147 (retired record): #1 -0.902; #2 0.249; #3 -0.0573
RNF141: #1 -1.17; #2 -0.434; #3 0.0154
ENDOV: #1 -0.208; #2 0.498; #3 4.38
BICDL1: #1 -0.304; #2 -0.748; #3 -0.393
GPATCH11: #1 1.12; #2 1.99; #3 1.23
SPPL2A: #1 -0.492; #2 5.77 (active); #3 0.63
GABRA3: #1 -1.01; #2 0.549; #3 0.661
SULF1: #1 -0.522; #2 -0.907; #3 -0.536
TSFM: #1 0.871; #2 0.766; #3 1.32
SNAP47: #1 -0.338; #2 -0.118; #3 -0.623
FANCI: #1 -0.948; #2 -0.306; #3 -0.538
SNX32: #1 0.492; #2 -0.477; #3 1.52
CD72: #1 1.55; #2 -0.277; #3 -0.0582
CASP2: #1 3.03; #2 -0.17; #3 -0.991
